{"source": "PubChem BioAssay AID1259425 (University of Nebraska Medical Center, 2018)", "assay": "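Seek colon cancer weak points whose silencing resembles KSR1 loss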 (primary screen)", "cell system": "HCT116 human colon cancer cells", "knock-down reagent": "siRNA pool against human genes, 50 nM siRNA", "measured": "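mRNA of six signature genes measured together by branched-DNA assay after 50 nM siRNA pool, blank removed, divided by geometric mean of two housekeeping genes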", "scale": "BNIP3L mRNA: higher = more BNIP3L transcript after knockdown", "note": "The deposit covers about 14,000 reagents; shown is a random part of them. Further read-outs or replicates are left out here. No sequences are given here. The record does not give: the time to read-out."}
{"Gene":"SLC6A8","BNIP3L mRNA, set 1":0.0951}
{"Gene":"IFI30","BNIP3L mRNA, set 1":0.0681}
{"Gene":"PDE11A","BNIP3L mRNA, set 1":0.0575}
{"Gene":"PRLHR","BNIP3L mRNA, set 1":0.133}
{"Gene":"TIMM44","BNIP3L mRNA, set 1":0.135}
{"Gene":"CFAP61","BNIP3L mRNA, set 1":0.143}
{"Gene":"SMG9","BNIP3L mRNA, set 1":0.0942}
{"Gene":"TYW1","BNIP3L mRNA, set 1":0.157}
{"Gene":"TGIF2LY","BNIP3L mRNA, set 1":0.0474}
{"Gene":"CPT1A","BNIP3L mRNA, set 1":0.0782}
{"Gene":"CILK1","BNIP3L mRNA, set 1":0.0805}

Quoted from the listing (3 entries):
{"Gene":"TYW1","BNIP3L mRNA, set 1":0.157}
{"Gene":"TGIF2LY","BNIP3L mRNA, set 1":0.0474}
{"Gene":"CPT1A","BNIP3L mRNA, set 1":0.0782}

Next entries follow:
{"Gene":"ID3","BNIP3L mRNA, set 1":0.11}
{"Gene":"SLC67A1-AS","BNIP3L mRNA, set 1":0.0323}
{"Gene":"FAM162A","BNIP3L mRNA, set 1":0.13}
{"Gene":"TNNI3K","BNIP3L mRNA, set 1":0.159}
{"Gene":"DSTYK","BNIP3L mRNA, set 1":0.0531}
{"Gene":"ZNF638","BNIP3L mRNA, set 1":0.0836}
{"Gene":"TM4SF5","BNIP3L mRNA, set 1":0.143}
{"Gene":"BUB3","BNIP3L mRNA, set 1":0.175}
